Many values rest on one well or one pass, so single values are uncertain.
Compound: [O-][N+](C(C1=C(C(O)=C2)NC(C(C=C3)=CC=C3Cl)C4C1C=CC4)=C2Cl)=O
Experiment: melting temperature shift (compound 7 minus DMSO); higher = compound stabilises the protein
Conditions: 10 µM
Procedure: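 Thermal proteome profiling (TMT mass spectrometry) in intact DAOY medulloblastoma cells or DAOY lysates treated with 10 µM compound 7 or DMSO, heated at 10 temperatures from 40.5 to 73.8 °C for 3 min. Melting curves were fitted with the Bioconductor TPP package, and the melting point difference between compound and vehicle is reported per protein (single curve per condition).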

Chains of the proteins cited; added tags and fusions are not shown. Lines headed by an entry give the natural chain unless they say otherwise; changes in a name come on top.
UniProt P57772: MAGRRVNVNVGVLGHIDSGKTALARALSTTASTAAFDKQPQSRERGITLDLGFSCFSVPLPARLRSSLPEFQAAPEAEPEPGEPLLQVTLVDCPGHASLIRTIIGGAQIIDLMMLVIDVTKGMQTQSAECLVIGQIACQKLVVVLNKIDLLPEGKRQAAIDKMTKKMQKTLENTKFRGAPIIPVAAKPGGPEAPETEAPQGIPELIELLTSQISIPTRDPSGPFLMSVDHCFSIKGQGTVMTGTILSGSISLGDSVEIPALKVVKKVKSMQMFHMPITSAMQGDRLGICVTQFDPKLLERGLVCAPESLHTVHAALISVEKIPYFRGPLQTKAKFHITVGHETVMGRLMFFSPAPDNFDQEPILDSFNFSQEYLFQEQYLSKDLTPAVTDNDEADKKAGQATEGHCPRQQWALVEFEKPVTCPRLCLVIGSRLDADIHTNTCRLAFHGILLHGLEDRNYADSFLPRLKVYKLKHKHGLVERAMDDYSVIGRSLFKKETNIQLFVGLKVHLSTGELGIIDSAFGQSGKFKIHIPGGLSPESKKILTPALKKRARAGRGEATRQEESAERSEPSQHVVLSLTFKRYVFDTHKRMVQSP
UniProt Q9Y5L4: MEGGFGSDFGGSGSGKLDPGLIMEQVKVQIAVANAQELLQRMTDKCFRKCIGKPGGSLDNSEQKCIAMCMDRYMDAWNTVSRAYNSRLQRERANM
UniProt Q5XKP0: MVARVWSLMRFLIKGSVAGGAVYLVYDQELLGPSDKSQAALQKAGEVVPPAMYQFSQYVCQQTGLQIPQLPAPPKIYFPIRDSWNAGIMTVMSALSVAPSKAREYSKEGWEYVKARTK
UniProt P41208: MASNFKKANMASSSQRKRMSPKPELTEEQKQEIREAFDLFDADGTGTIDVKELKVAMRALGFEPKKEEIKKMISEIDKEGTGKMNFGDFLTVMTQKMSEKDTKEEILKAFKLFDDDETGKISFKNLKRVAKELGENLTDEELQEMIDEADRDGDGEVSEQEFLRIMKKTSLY
UniProt Q9Y570: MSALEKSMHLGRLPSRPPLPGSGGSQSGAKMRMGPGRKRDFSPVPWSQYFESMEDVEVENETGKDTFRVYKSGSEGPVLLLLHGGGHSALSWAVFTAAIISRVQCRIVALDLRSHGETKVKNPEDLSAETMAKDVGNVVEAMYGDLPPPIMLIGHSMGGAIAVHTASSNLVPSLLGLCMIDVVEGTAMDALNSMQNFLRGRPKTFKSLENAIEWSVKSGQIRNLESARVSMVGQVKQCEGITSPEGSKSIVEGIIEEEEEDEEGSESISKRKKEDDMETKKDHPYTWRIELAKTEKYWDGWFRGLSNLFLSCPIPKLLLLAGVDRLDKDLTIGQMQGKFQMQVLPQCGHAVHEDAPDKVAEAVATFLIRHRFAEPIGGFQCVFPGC
UniProt Q86W42: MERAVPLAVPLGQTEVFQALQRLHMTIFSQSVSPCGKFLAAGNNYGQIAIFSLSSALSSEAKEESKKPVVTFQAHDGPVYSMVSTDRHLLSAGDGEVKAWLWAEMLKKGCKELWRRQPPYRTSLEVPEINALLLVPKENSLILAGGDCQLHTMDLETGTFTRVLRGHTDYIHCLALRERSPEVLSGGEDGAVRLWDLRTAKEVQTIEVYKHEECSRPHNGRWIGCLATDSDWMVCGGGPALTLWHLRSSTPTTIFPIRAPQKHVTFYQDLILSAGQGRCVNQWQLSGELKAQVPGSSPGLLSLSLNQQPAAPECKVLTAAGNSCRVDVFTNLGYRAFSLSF
UniProt P55201: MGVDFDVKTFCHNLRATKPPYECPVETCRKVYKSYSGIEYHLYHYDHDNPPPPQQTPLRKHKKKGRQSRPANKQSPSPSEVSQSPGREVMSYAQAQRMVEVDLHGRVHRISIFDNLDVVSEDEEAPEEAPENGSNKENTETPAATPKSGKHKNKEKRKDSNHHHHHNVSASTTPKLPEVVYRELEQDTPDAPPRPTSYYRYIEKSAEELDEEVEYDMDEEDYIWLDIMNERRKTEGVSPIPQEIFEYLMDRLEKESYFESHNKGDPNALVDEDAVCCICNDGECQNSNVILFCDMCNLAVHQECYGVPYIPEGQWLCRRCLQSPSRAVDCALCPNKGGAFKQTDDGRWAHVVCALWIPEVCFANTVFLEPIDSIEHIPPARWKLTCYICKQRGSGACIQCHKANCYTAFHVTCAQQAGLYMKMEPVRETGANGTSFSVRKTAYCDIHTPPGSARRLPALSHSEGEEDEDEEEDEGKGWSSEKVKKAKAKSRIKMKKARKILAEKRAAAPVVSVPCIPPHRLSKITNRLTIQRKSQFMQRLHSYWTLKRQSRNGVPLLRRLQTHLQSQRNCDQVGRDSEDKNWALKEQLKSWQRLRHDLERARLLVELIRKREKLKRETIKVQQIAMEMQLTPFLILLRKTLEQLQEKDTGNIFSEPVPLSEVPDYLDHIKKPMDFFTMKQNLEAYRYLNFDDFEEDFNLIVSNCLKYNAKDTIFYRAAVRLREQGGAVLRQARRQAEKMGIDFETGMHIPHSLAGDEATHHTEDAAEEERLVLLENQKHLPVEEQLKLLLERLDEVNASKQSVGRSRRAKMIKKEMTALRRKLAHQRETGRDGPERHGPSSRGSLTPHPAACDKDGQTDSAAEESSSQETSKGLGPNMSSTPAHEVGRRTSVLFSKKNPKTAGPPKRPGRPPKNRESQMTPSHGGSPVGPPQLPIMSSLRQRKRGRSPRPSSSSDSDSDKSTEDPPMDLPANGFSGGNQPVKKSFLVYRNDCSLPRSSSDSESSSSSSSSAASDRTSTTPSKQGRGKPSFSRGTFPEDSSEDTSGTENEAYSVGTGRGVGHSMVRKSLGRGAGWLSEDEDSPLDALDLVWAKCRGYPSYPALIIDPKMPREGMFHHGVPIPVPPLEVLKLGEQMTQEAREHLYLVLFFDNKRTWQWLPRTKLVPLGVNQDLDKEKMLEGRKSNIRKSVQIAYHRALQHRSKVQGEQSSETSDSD
UniProt Q9BZX2: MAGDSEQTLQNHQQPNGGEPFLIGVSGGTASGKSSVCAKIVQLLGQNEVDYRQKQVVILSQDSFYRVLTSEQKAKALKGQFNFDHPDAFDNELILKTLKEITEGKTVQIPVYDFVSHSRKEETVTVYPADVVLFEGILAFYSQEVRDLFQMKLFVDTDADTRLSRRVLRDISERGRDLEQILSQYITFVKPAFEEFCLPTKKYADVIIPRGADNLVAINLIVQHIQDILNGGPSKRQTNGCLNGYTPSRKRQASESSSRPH
UniProt P08243: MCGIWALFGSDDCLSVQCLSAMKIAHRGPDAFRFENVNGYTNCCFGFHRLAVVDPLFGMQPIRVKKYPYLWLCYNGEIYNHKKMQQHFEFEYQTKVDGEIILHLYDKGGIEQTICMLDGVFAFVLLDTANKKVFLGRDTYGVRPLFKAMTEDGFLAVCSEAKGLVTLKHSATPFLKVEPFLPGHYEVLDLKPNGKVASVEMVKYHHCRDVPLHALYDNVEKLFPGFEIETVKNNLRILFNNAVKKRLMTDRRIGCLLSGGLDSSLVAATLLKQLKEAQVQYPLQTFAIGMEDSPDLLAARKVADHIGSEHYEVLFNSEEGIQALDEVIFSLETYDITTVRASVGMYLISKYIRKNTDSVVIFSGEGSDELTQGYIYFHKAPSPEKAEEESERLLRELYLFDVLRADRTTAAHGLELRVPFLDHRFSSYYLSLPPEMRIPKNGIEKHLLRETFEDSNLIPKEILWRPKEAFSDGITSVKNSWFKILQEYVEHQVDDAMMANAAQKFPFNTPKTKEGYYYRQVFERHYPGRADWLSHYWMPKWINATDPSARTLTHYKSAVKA
UniProt P26368, whole entry: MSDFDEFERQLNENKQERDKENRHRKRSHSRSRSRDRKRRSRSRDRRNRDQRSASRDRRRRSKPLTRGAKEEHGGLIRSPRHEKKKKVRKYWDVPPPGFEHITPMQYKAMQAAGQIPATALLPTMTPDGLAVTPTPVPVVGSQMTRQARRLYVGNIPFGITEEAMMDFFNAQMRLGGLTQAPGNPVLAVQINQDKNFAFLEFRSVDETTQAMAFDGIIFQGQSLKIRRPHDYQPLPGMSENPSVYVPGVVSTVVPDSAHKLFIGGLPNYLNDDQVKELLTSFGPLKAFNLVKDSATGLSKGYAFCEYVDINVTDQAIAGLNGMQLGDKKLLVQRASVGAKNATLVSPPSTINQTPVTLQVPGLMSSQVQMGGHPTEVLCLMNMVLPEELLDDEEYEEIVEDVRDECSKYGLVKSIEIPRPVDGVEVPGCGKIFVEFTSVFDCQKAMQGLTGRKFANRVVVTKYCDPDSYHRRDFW
UniProt O15061: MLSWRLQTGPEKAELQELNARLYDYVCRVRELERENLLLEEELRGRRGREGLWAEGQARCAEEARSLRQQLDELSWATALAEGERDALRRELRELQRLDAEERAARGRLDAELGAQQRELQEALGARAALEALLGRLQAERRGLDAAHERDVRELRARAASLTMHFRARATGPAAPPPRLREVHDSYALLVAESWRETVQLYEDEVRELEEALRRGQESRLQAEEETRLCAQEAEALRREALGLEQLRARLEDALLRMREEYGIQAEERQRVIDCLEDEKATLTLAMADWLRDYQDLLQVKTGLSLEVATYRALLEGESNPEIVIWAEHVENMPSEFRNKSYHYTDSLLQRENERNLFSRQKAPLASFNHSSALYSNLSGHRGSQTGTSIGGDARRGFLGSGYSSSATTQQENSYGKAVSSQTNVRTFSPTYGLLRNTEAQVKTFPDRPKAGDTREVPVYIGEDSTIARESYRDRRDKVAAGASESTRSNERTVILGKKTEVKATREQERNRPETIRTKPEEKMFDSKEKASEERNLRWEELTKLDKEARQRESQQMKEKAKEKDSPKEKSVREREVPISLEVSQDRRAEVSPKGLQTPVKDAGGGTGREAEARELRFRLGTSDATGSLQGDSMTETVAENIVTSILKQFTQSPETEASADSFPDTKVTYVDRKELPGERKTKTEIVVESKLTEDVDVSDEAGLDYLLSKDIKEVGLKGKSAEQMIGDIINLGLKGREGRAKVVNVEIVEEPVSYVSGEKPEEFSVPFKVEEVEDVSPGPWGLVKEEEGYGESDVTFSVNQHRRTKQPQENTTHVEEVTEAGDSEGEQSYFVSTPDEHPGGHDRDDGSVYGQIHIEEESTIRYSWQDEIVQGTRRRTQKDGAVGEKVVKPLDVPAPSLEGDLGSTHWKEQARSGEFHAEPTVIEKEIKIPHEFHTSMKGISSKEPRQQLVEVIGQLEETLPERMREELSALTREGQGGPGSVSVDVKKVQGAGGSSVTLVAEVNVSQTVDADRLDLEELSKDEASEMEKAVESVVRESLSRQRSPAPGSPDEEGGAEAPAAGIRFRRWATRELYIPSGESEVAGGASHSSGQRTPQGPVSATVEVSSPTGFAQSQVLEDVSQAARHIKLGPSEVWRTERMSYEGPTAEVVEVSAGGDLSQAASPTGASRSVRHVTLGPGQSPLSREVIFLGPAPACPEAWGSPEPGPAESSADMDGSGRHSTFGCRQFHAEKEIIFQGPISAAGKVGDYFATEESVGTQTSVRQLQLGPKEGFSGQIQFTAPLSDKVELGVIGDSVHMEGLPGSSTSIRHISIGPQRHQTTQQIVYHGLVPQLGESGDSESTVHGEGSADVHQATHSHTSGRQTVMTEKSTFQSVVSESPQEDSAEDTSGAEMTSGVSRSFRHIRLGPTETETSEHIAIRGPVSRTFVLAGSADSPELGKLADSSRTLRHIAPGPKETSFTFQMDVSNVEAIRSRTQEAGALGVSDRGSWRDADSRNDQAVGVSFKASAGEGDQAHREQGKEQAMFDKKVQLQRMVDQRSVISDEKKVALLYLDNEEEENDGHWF
UniProt P52272: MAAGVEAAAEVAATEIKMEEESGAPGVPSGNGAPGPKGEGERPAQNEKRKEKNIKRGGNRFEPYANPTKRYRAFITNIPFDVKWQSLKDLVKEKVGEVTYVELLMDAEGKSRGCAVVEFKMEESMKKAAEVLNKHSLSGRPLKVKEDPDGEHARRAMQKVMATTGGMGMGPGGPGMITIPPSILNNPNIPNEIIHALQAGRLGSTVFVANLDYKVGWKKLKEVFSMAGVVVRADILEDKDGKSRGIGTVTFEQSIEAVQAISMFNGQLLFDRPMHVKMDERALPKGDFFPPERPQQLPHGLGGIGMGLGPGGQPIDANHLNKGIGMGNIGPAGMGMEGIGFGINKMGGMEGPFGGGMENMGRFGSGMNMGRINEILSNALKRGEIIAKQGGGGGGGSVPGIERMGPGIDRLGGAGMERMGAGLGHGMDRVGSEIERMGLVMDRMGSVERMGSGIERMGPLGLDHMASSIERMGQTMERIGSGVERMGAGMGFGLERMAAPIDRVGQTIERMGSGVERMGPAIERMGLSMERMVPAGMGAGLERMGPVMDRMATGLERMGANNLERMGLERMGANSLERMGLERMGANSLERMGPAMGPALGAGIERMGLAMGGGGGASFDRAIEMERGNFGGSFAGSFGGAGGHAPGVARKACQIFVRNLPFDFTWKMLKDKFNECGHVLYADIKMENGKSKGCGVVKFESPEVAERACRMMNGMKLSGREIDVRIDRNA

[1] = system: DAOY cell lysate, treatment time: 20 min, 4 °C
[2] = system: intact DAOY cells, treatment time: 90 min, 37 °C

| Target | melting temperature shift [1] [°C] | melting temperature shift [2] [°C] |
| --- | --- | --- |
| EEFSEC (UniProt P57772) | -0.667 | -0.439 |
| ID1 (UniProt P41134) | 0.367 |  |
| EI24 (UniProt O14681) | -0.429 | -4.54 |
| PHF5A (UniProt Q7RTV0) | 0.447 |  |
| XRCC4 (UniProt Q13426) | -0.386 | 1.22 |
| UniProt Q6SZW1 | -0.0159 |  |
| UniProt Q14119 |  | -1.29 |
| TACO1 (UniProt Q9BSH4) | 4.32 | -0.78 |
| PTEN (UniProt P60484) |  | 0.859 |
| PPP2R2D (UniProt Q66LE6) | 0.0407 | 0.552 |
| MTDH (UniProt Q86UE4) | 2.75 |  |
| PPP4R3A (UniProt Q6IN85) | -0.516 | 0.186 |
| CBX3 (UniProt Q13185) | -0.0764 | 0.42 |
| GPATCH4 (UniProt Q5T3I0) | 0.102 |  |
| SMPD4 (UniProt Q9NXE4) |  | 0.434 |
| MAT2B (UniProt Q9NZL9) | -0.495 | -1.12 |
| EIF2S1 (UniProt P05198) | -0.327 | -0.103 |
| RDX (UniProt P35241) | -0.93 | -0.659 |
| NUF2 (UniProt Q9BZD4) | -0.605 | -0.338 |
| TIMM13 (UniProt Q9Y5L4) | -0.744 |  |
| RAP2C (UniProt Q9Y3L5) | 2.75 | -0.09 |
| SLC39A11 (UniProt Q8N1S5) |  | -1.35 |

Quoted from the entries so far (six entries):

| Target | melting temperature shift [1] [°C] | melting temperature shift [2] [°C] |
| --- | --- | --- |
| ID1 (UniProt P41134) | 0.367 |  |
| EI24 (UniProt O14681) | -0.429 | -4.54 |
| PHF5A (UniProt Q7RTV0) | 0.447 |  |
| XRCC4 (UniProt Q13426) | -0.386 | 1.22 |
| UniProt Q6SZW1 | -0.0159 |  |
| UniProt Q14119 |  | -1.29 |

The list goes on:

| Target | melting temperature shift [1] [°C] | melting temperature shift [2] [°C] |
| --- | --- | --- |
| NDUFS2 (UniProt O75306) | 0.689 | 0.223 |
| UniProt Q96E39 | 2.05 | 1.38 |
| APH1A (UniProt Q96BI3) | 0.144 | -2.35 |
| UniProt Q9Y250 | 0.159 | -1.01 |
| SRSF5 (UniProt Q13243) | 0.289 |  |
| RPL22 (UniProt P35268) | -0.237 | -1.04 |
| VTA1 (UniProt Q9NP79) | -0.538 | 0.0421 |
| ARHGAP29 (UniProt Q52LW3) | -1.25 | -0.773 |
| A0A1B0GTU1, A0A1B0GTU1 |  | -4.65 |
| CC2D1A (UniProt Q6P1N0) | -1.68 | -1.17 |
| UBE2J2 (UniProt Q8N2K1) | 2.21 | -0.347 |
| UniProt Q9UNH6 | 0.242 | -1.3 |
| USO1 (UniProt O60763) | -0.0782 | -0.573 |
| NELFE (UniProt P18615) | -0.546 | 1.69 |
| TMEM205 (UniProt Q6UW68) | 1.2 | 3.07 |
| UniProt Q96T58 | 1.79 |  |
| UniProt Q5XKP0 | 0.721 | -2.05 |
| RNF20 (UniProt Q5VTR2) | -0.0355 | 1.09 |
| OSBPL9 (UniProt Q96SU4) | -1.46 | 1.18 |
| CETN2 (UniProt P41208) | -1.09 |  |
| THRAP3 (UniProt Q9Y2W1) | 0.77 | 3.06 |
| EEF1D (UniProt P29692) | -0.393 | 0.0554 |

| Target | melting temperature shift [1] [°C] | melting temperature shift [2] [°C] |
| --- | --- | --- |
| UBXN4 (UniProt Q92575) | 1.26 | -0.779 |
| UniProt Q8N131 | 2.41 | 0.487 |
| UniProt Q6EKJ0 |  | 0.467 |
| CEPT1 (UniProt Q9Y6K0) | 1.89 | -1.85 |
| PRPF38A (UniProt Q8NAV1) | 0.253 | 0.24 |
| UniProt Q9BRK4 |  | 0.0845 |
| WDR82 (UniProt Q6UXN9) | -0.537 | 1.54 |
| UniProt Q9BTM1 |  | 0.652 |
| NUP58 (UniProt Q9BVL2) | -0.022 | 1.57 |
| NAA10 (UniProt P41227) | 0.27 | -0.517 |
| MRPS14 (UniProt O60783) | -2.38 | -0.881 |
| ZCRB1 (UniProt Q8TBF4) | 0.943 | -0.893 |
| FAM117B (UniProt Q6P1L5) |  | 3.42 |
| CDC34 (UniProt P49427) | -0.612 | 0.145 |
| PFKL (UniProt P17858) | -0.606 | -0.874 |
| UniProt Q7Z4I7 |  | -0.691 |
| PPME1 (UniProt Q9Y570) | -0.332 | -0.12 |
| THOC6 (UniProt Q86W42) | -1.42 | 2.84 |
| UniProt P55201 | -3.42 |  |
| UCK2 (UniProt Q9BZX2) | -0.529 | -1.1 |
| UniProt O43347 |  | 0.282 |
| UniProt P46821 | -0.748 | 0.237 |

| Target | melting temperature shift [1] [°C] | melting temperature shift [2] [°C] |
| --- | --- | --- |
| UniProt Q9NYV4 | -0.611 | -0.16 |
| FAM120C (UniProt Q9NX05) | 0.408 | -0.916 |
| GOPC (UniProt Q9HD26) | -0.777 | -0.469 |
| ASNS (UniProt P08243) | -0.097 | -1.18 |
| U2AF2 (UniProt P26368) | 0.866 | -0.812 |
| DHRS7 (UniProt Q9Y394) |  | 2.73 |
| UniProt Q14CS0 | 0.671 |  |
| UniProt O15061 | 0.625 |  |
| UniProt Q9UN36 | -0.851 |  |
| CCDC117 (UniProt Q8IWD4) | -4.64 |  |
| MIA3 (UniProt Q5JRA6) | 0.836 | -0.5 |
| HNRNPM (UniProt P52272) | 0.531 | -0.326 |
| POLR1A (UniProt O95602) | 0.33 | 0.421 |
| PRKRA (UniProt O75569) | -3.16 |  |
| TIPIN (UniProt Q9BVW5) | -1.21 | 0.802 |
| UniProt Q9BRR3 | 2.02 |  |
| METTL10 (UniProt Q5JPI9) | -0.627 |  |
| TRAF6 (UniProt Q9Y4K3) |  | 0.96 |
| UniProt P09936 | -0.558 | 0.746 |
| PRPF19 (UniProt Q9UMS4) | -0.274 | 1.84 |
| UniProt Q9H672 |  | 0.697 |

Source: the supplement of paper PMC10060354, “Discovery of a small molecule ligand of FRS2 that inhibits invasion and tumor growth” (Cellular Oncology, 2022)
